B1: CXCL13 (ligand, UniProt O43927 23-109)
chain: VLEVYYTSLRCRCVQESSVFIPRRFIDRIQILPRGNGCPRKEIIVWKKNKSIVCVDPQAEWIQRMMEVLRKRSSSTLPVPVFKRKIP
B2: CXCL14 (ligand, UniProt O95715 35-111)
chain: SKCKCSRKGPKIRYSDVKKLEMKPKYPHCEEKMVIITTKSVSRYRGQEHCLHPKLQSTKRFIKWYNAWNEKRRVYEE
B3: CCL23 (ligand, UniProt P55773 22-120)
chain: RVTKDAETEFMMSKLPLENPVLLDRFHATSADCCISYTPRSIPCSLLESYFETNSECSKPGVIFLTKKGRRFCANPSDKQVQVCMRMLKLDTRIKTRKN
B4: CCL14 (66 aa) (ligand, UniProt Q16627 20-93)
chain: TKTESSSRGPYHPSECCFTYTTYKIPRQRIMDYYETNSQCSKPGIVFITKRGHSVCTNPSDKWVQDYIKDMKEN
B5: CCL14 (72 aa) (ligand, UniProt Q16627 20-93)
chain: B4 chain
B6: CCL1 (ligand, UniProt P22362 24-96)
chain: KSMQVPFSRCCFSFAEQEIPLRAILCYRNTSSICSNEGLIFKLKRGKEACALDTVGWVQRHRKMLRHCPSKRK
B7: CCL22 (ligand, UniProt O00626 25-93)
chain: GPYGANMEDSVCCRDYVRYRLPLRVVKHFYWTSDSCPRPGVVLLTFRDKEICADPRVPWVKMILNKLSQ
B8: CCL15 (ligand, UniProt Q16663 22-113)
chain: QFTNDAETELMMSKLPLENPVVLNSFHFAADCCTSYISQSIPCSLMKSYFETSSECSKPGVIFLTKKGRQVCAKPSGPGVQDCMKKLKPYSI
B9: CCL27 (ligand, UniProt Q9Y4X3 25-112)
chain: FLLPPSTACCTQLYRKPLSDKLLRKVIQVELQEADGDCHLQAFVLHLAQRSICIHPQNPSLSQWFEHQERKLHGTLPKLNFGMLRKMG
B10: CXCL16 (ligand, UniProt Q9H2A7 30-205)
chain: NEGSVTGSCYCGKRISSDSPPSVQFMNRLRKHLRAYHRCLYYTRFQLLSWSVCGGNKDPWVQELMSCLDLKECGHAYSGIVAHQKHLLPTSPPISQASEGASSDIHTPAQMLLSTLQSTQRPTLPVGSLSSDKELTRPNETTIHTAGHSLAAGPEAGENQKQPEKNAGPTARTSAT
B11: CCL18 (ligand, UniProt P55774 21-89)
chain: AQVGTNKELCCLVYTSWQIPQKFIVDYSETSPQCPKPGVILLTKRGRQICADPNKKWVQKYISDLKLNA
B12: CCL16 (ligand, UniProt O15467 24-120)
chain: QPKVPEWVNTPSTCCLKYYEKVLPRRLVVGYRKALNCHLPAIIFVTKRNREVCTNPNDDWVQEYIKDPNLPLLPTRNLSTVKIITAKNGQPQLLNSQ
B13: CCL28 (ligand, UniProt Q9NRJ3 20-127)
chain: SEAILPIASSCCTEVSHHISRRLLERVNMCRIQRADGDCDLAAVILHVKRRRICVSPHNHTVKQWMKVQAAKKNGKGNVCHRKKHHGKRNSNRAHQGKHETYGHKTPY

We go through 13 molecules from paper PMC5444840.

These are yes or no findings as the source states them, for the method shown. A result given as binding can be weak or reduced; the word gives no strength.

One assay addresses VZV gC IgD with a C-terminal Twin-Streptavidin tag (IgD-Strep) (Varicella zoster virus, Dumas strain). Briefly: SPR; screening: IgD-Strep amine-coupled on a CM5 chip (2864 RU); chemokines injected at 100 nM; both purified.
As to B1, the binding result is “binds”.

Another assay concerns the target recombinant soluble VZV glycoprotein C ectodomain (VZV rSgC) (Varicella zoster virus, Dumas strain). The experiment in a line: SPR; binding screening, Biacore X-100: gC construct (rSgC, IgD or R2D) amine-coupled on a CM4 chip; chemokines injected at 100 nM in HBS-EP pH 7.4 at 30 ul/min, 90 s contact, 60 s dissociation; both purified.
B2: the binding entry is reported as “binds”.
As for B3, the binding result was “no binding (tested: 100 nM)”.
In the case of B4, the binding entry is on record as “no binding (tested: 100 nM)”.
As for B5, the binding entry is given as “no binding (tested: 100 nM)”.
Consider B6, for which the binding result is reported as “binds”.
On to B7, for which the binding result is “binds”.
B1: the binding result is recorded as “binds”.
For B8, the binding result is “no binding (tested: 100 nM)”.
For B9, the binding entry is “binds weakly”.
For the molecule B10, the binding result is listed as “binds weakly”.
On to B11, for which the binding entry was “binds”.
As for B12, the binding entry is reported as “binds”.
Still for that read-out and setting: the same measure for B13: “binds”.
